According to the supplement of paper PMC8326762, “A Small Molecule Inhibitor of Pex3–Pex19 Interaction Disrupts Glycosome Biogenesis and Causes Lethality in Trypanosoma brucei” (Frontiers in Cell and Developmental Biology, 2021):
Counter-ions that a name gives are not always drawn. This is one part of the list. The data scatter; read single values as rough.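 Yeast growth was read as optical density at 600 nm. The two-hybrid strains grew without histidine, so growth needed the Pex3–Pex19 binding; a compound counted as trypanosome-selective if it cut growth of the trypanosome-pair strain by more than 65% and the human-pair strain by less than 65%.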

Experiments:
[1] = test system: Saccharomyces cerevisiae HF7c pdr5Δ; experiment: general growth inhibition of yeast HF7c pdr5Δ in -Leu -Trp medium, relative to DMSO; higher = stronger general growth inhibition; conditions: 100 µM; 24 h
[2] = test system: human PEX3-PEX19 interaction (yeast two-hybrid); experiment: growth inhibition of yeast two-hybrid strain reporting HsPex3-HsPex19 interaction, relative to DMSO; higher = stronger inhibition of human Pex3-Pex19 interaction / growth; conditions: 100 µM; 24 h; 3-aminotriazole 10 mM
[3] = test system: T. brucei Pex3-Pex19 interaction (yeast two-hybrid); experiment: growth inhibition of yeast two-hybrid strain reporting TbPex3-TbPex19 interaction, relative to DMSO; higher = stronger inhibition of T. brucei Pex3-Pex19 interaction / growth; conditions: 100 µM; 24 h

Compound | general growth inhibition [1] | growth inhibition [2] | growth inhibition [3]
O=c1[nH]c(=O)n(C2CCCO2)cc1F (stereo not given) [Tegafur] | 45.2% | 43.4% | 67.1%
CN(CCCOc1ccc(Cc2ccccc2)cc1)CCC(=O)O | 54% | 39.5% | 65.8%
Cn1cc(C(F)(F)F)nc1-c1ccc(OCC(O)CNCCOc2ccc(O)c(C(N)=O)c2)cc1 (stereo not given) | 18.5% | 27.1% | 53.4%
CCCCCCCCCCCCCCSCC(=O)O [Tetradecylthioacetic acid] | 48.2% | 47.9% | 58.8%
O=C(CCCN1CCC(O)(c2ccc(Cl)cc2)CC1)c1ccc(F)cc1 [Haloperidol] | 28.5% | 30.2% | 54.6%
C[C@]12CC[C@@H]3c4ccc(O)cc4CC[C@H]3[C@@H]1CC[C@@H]2O [beta-Estradiol] | 19.1% | 32.1% | 42.5%
O=C(O)CN(CCOCCOCCN(CC(=O)O)CC(=O)O)CC(=O)O | 34.1% | 32.6% | 57.8%
CN(C)CCC=C1c2ccccc2C=Cc2ccccc21 [Cyclobenzaprine hydrochloride] | 30.4% | 37.5% | 39.2%
CC(C)[C@H](N)C(=O)OCC(CO)OCn1cnc2c(=O)[nH]c(N)nc21 (stereo not given in full) [Valganciclovir hydrochloride hydrate] | 46.3% | 35.7% | 54.8%
NC1=NCC2c3ccccc3Cc3ccccc3N12 (stereo not given) [Epinastine hydrochloride] | 28% | 33.6% | 59.1%
O=c1c(-c2ccc(O)cc2)coc2cc(O)ccc12 [Daidzein] | 28.4% | 40.3% | 49.7%
Cc1cccc(C(=O)NCN2CCN(c3ccccc3C#N)CC2)c1 [PD 168,077 maleate] | 19.3% | 16.3% | 44.5%
CC[C@]1(O)C[C@H]2CN(CCc3c([nH]c4ccccc34)[C@@](C(=O)OC)(c3cc4c(cc3OC)N(C=O)[C@H]3[C@@](O)(C(=O)OC)[C@H](OC(C)=O)[C@]5(CC)C=CCN6CC[C@]43[C@@H]65)C2)C1 [Vincristine sulfate] | 43.9% | 41.9% | 53.6%
NC(=O)CC[C@H](N)C(=O)O [L-Glutamine] | 32.7% | 29% | 58.3%
Cc1ccc(=O)n(-c2ccccc2)c1 [Pirfenidone] | 48.7% | 46.4% | 67.8%
Nc1cc(=O)[nH]c(N)n1 [2,4-Diamino-6-pyrimidinone] | 32.1% | 37.3% | 56.3%
CCCN(CCC)C(=O)C(CCC(=O)O)NC(=O)c1ccccc1 (stereo not given) [Proglumide] | 51.6% | 39.2% | 62.2%
C[C@H](NC(=O)/C(C#N)=C/c1ccc(O)c(O)c1)c1ccccc1 [Tyrphostin AG 835] | 7.12% | 5.16% | 38.1%
CC(C)NCC(O)COc1ccc(COCCOC(C)C)cc1 (stereo not given) [Bisoprolol hemifumarate salt] | 6.54% | 5% | 34%
COc1cc(CC(=O)O)ccc1O [4-Hydroxy-3-methoxyphenylacetic acid] | 15% | 4.69% | 26.5%
Cc1ccc(O)c(N=Nc2ccccc2)n1 | 47.1% | 42.2% | 41.7%
CCC(=O)N1CCN(C(=O)c2ccccc2)CC1 | 24.6% | 44.3% | 43%

Taken from above (17 entries):
Compound | general growth inhibition [1] | growth inhibition [2] | growth inhibition [3]
CN(CCCOc1ccc(Cc2ccccc2)cc1)CCC(=O)O | 54% | 39.5% | 65.8%
Cn1cc(C(F)(F)F)nc1-c1ccc(OCC(O)CNCCOc2ccc(O)c(C(N)=O)c2)cc1 (stereo not given) | 18.5% | 27.1% | 53.4%
CCCCCCCCCCCCCCSCC(=O)O [Tetradecylthioacetic acid] | 48.2% | 47.9% | 58.8%
O=C(CCCN1CCC(O)(c2ccc(Cl)cc2)CC1)c1ccc(F)cc1 [Haloperidol] | 28.5% | 30.2% | 54.6%
C[C@]12CC[C@@H]3c4ccc(O)cc4CC[C@H]3[C@@H]1CC[C@@H]2O [beta-Estradiol] | 19.1% | 32.1% | 42.5%
O=C(O)CN(CCOCCOCCN(CC(=O)O)CC(=O)O)CC(=O)O | 34.1% | 32.6% | 57.8%
CN(C)CCC=C1c2ccccc2C=Cc2ccccc21 [Cyclobenzaprine hydrochloride] | 30.4% | 37.5% | 39.2%
CC(C)[C@H](N)C(=O)OCC(CO)OCn1cnc2c(=O)[nH]c(N)nc21 (stereo not given in full) [Valganciclovir hydrochloride hydrate] | 46.3% | 35.7% | 54.8%
NC1=NCC2c3ccccc3Cc3ccccc3N12 (stereo not given) [Epinastine hydrochloride] | 28% | 33.6% | 59.1%
O=c1c(-c2ccc(O)cc2)coc2cc(O)ccc12 [Daidzein] | 28.4% | 40.3% | 49.7%
Cc1cccc(C(=O)NCN2CCN(c3ccccc3C#N)CC2)c1 [PD 168,077 maleate] | 19.3% | 16.3% | 44.5%
CC[C@]1(O)C[C@H]2CN(CCc3c([nH]c4ccccc34)[C@@](C(=O)OC)(c3cc4c(cc3OC)N(C=O)[C@H]3[C@@](O)(C(=O)OC)[C@H](OC(C)=O)[C@]5(CC)C=CCN6CC[C@]43[C@@H]65)C2)C1 [Vincristine sulfate] | 43.9% | 41.9% | 53.6%
NC(=O)CC[C@H](N)C(=O)O [L-Glutamine] | 32.7% | 29% | 58.3%
Cc1ccc(=O)n(-c2ccccc2)c1 [Pirfenidone] | 48.7% | 46.4% | 67.8%
Nc1cc(=O)[nH]c(N)n1 [2,4-Diamino-6-pyrimidinone] | 32.1% | 37.3% | 56.3%
CCCN(CCC)C(=O)C(CCC(=O)O)NC(=O)c1ccccc1 (stereo not given) [Proglumide] | 51.6% | 39.2% | 62.2%
C[C@H](NC(=O)/C(C#N)=C/c1ccc(O)c(O)c1)c1ccccc1 [Tyrphostin AG 835] | 7.12% | 5.16% | 38.1%

Following part

Compound | general growth inhibition [1] | growth inhibition [2] | growth inhibition [3]
CC(=O)OCC1=C(C(=O)O)N2C(=O)[C@@H](NC(=O)Cc3cccs3)[C@H]2SC1 [Cephalothin sodium] | 38.4% | 42.1% | 61.7%
Cc1ccc(C(=O)Nc2ccc(S(=O)(=O)O)c3cc(S(=O)(=O)O)cc(S(=O)(=O)O)c23)cc1NC(=O)c1cccc(NC(=O)Nc2cccc(C(=O)Nc3cc(C(=O)Nc4ccc(S(=O)(=O)O)c5cc(S(=O)(=O)O)cc(S(=O)(=O)O)c45)ccc3C)c2)c1 [Suramin sodium salt] | 52.8% | 44.3% | 63%
CCn1cc(C(=O)O)c(=O)c2ccc(C)nc21 [Nalidixic acid sodium] | 73.9% | 63.3% | 78.5%
NO [Hydroxylamine hydrochloride] | 4.94% | 5.32% | 34.9%
O=Nc1ccc2oc(=O)ccc2c1 [6-Nitroso-1,2-benzopyrone] | 88.4% | 84.3% | 83.5%
N[C@@H](Cc1ccc(O)c(I)c1)C(=O)O [3-Iodo-L-tyrosine] | 58.1% | 49.8% | 71.6%
C[N+](C)(C)CCOC(=O)CCC(=O)OCC[N+](C)(C)C [Succinylcholine chloride] | 53% | 51.3% | 63.6%
NC(=O)OCC(COC(N)=O)c1ccccc1 [Felbamate] | 38.9% | 40% | 60.2%
O=C(N[C@@H](Cc1ccccc1)C(=O)CCl)OCc1ccccc1 [Z-L-Phe chloromethyl ketone] | 71.8% | 61.7% | 60.1%
NCCCCCC(=O)O [6-Aminohexanoic acid] | 19.7% | 11.4% | 33.5%
CCN1C(=O)C=CC1=O [N-Ethylmaleimide] | 28.4% | 39.2% | 62.6%
COc1ccc(CC(C)NCC(O)c2ccc(O)c(NC=O)c2)cc1 (stereo not given) [Formoterol] | 26.6% | 44.2% | 52.5%
C=CC[C@H](N)C(=O)O [L-allylglycine] | 37% | 35.1% | 50%
C=C[C@H]1CN2CC[C@H]1C[C@@H]2[C@@H](O)c1ccnc2ccc(OC)cc12 [Quinidine sulfate] | 43.5% | 41.9% | 73.2%
CC1CCN(CC[C@H]2CCCN2S(=O)(=O)c2cccc(O)c2)CC1 | 43% | 40.3% | 61.2%
CC(N)(C(=O)O)c1ccc(C(=O)O)cc1 (racemic) [(±)-alpha-Methyl-4-carboxyphenylglycine] | 29.6% | 17.4% | 73.9%
Cc1ccc(Cl)c(Nc2ccccc2C(=O)O)c1Cl [Meclofenamic acid sodium] | 12.6% | -5.64% | 15.1%
Fc1ccc(C(OCCCc2cnc[nH]2)c2ccc(F)cc2)cc1 | 40.9% | 40.7% | 68.6%
C[C@H](c1ccc(F)cc1CCCC(=O)O)N(c1cc(F)ccc1F)S(=O)(=O)c1ccc(Cl)cc1 | 57.1% | 24.5% | 56.3%
CN1CCN(CCCN2c3ccccc3Sc3ccc(Cl)cc32)CC1 [Prochlorperazine dimaleate] | 31.6% | 27.1% | 45.1%
Cc1ccc(S(=O)(=O)N[C@@H](Cc2ccccc2)C(=O)CCl)cc1 [N-p-Tosyl-L-phenylalanine chloromethyl ketone] | 89.1% | 81.2% | 80.2%
CCCc1c(-c2ccc(O)cc2)nn(-c2ccc(O)cc2)c1-c1ccc(O)cc1 [1,3,5-tris(4-hydroxyphenyl)-4-propyl-1H-pyrazole] | 21.9% | 15.6% | 42.5%

Compound | general growth inhibition [1] | growth inhibition [2] | growth inhibition [3]
O=C(O)Cc1ccccc1Nc1c(Cl)cccc1Cl [Diclofenac sodium] | 79.4% | 79.4% | 84%
Cc1nc(N=Nc2ccc(S(=O)(=O)O)cc2S(=O)(=O)O)c(COP(=O)(O)O)c(C=O)c1O | 48.5% | 38.4% | 60.3%
CCN(CC)CCNC(=O)c1ccc(N)cc1 [Procainamide hydrochloride] | 49.3% | 42.2% | 68.4%
Cc1c(O)cccc1C(=O)N[C@@H](CSc1ccccc1)[C@H](O)CN1C[C@H]2CCCC[C@H]2C[C@H]1C(=O)NC(C)(C)C [Nelfinavir mesylate hydrate] | 10.6% | 5.96% | 21.9%
CCN(CC)CCNC(=O)c1ccc(NC(C)=O)cc1 [N-Acetylprocainamide hydrochloride] | 14.7% | 14.5% | 32.2%
COc1ccc(-c2cc(=O)c3c(O)c(OC)c(OC)cc3o2)cc1O [Eupatorin] | 19.8% | 10.8% | 41.7%
COc1cc(SC)ccc1C(=O)N1CCC(Cc2ccccc2)CC1 | 41.8% | 21.8% | 30.6%
Nc1nc2c(ncn2COCCO)c(=O)[nH]1 [Acyclovir] | 48.5% | 48.5% | 67.9%
Cc1cnc(C(=O)NCCc2ccc(S(=O)(=O)NC(=O)NC3CCCCC3)cc2)cn1 [Glipizide] | 32.4% | 22.9% | 23.4%
Nn1nnc2ccccc21 [1-Aminobenzotriazole] | 42.1% | 43.8% | 67.2%
CCCc1c(OCCCOc2ccc(OCC(=O)O)cc2)ccc(C(C)=O)c1O | 46.3% | 30.4% | 47.4%
OC[C@H]1NC[C@H](O)[C@@H](O)[C@@H]1O [1-Deoxynojirimycin hydrochloride] | 37.6% | 38.5% | 61.3%
NS(=O)(=O)c1cc2c(cc1Cl)NCNS2(=O)=O [Hydrochlorothiazide] | 36.8% | 33.2% | 58%
COC(=O)[C@@H](N)Cc1ccc(O)c(O)c1 [L-3,4-Dihydroxyphenylalanine methyl ester hydrochloride] | 48.9% | 48.4% | 61.6%
CC(C)[N+]1(C)[C@@H]2CC[C@H]1C[C@@H](OC(=O)C(CO)c1ccccc1)C2 (stereo not given in full) [Ipratropium bromide] | 38.2% | 41.3% | 63.1%
CC(=O)Oc1cc(C(C)C)c(OCCN(C)C)cc1C [Moxisylyte hydrochloride] | 48.1% | 34.6% | 68%
O=C(CCSCc1ccco1)NNC(=O)N1Cc2ccccc2Oc2ccc(Cl)cc21 | 41.8% | 31.9% | 53.5%
O=C(c1ccccc1)c1ccc2n1CCC2C(=O)O (stereo not given) [Ketorolac tris salt] | 49.5% | 40.5% | 58.6%
O=C1Cc2c([nH]c3ccc(Br)cc23)-c2ccccc2N1 [Kenpaullone] | 3.08% | -8.1% | 16.8%
N[C@@H](Cc1ccc(O)c(O)c1)C(=O)O [L-3,4-Dihydroxyphenylalanine] | 35.2% | 39.4% | 60%
CCCCC1(C2CCCC2)Cc2cc(OCC(=O)O)c(Cl)c(Cl)c2C1=O (stereo in doubt) [R(+)-Butylindazone] | 78.3% | 60.4% | 61.6%
